In patent publication US20230372361A1, “USE OF OXYGENATED CHOLESTEROL SULFATES FOR TREATING INFLAMMATORY CONDITIONS” (Durect Corporation, priority 2020, published 2023):

Test system: Huh-7 cells
Test: Whole genome bisulfite sequencing (WGBS), promoter 5mCpG demethylation
Type: cell-based, human
Method: Huh-7 and HepG-2 cells were cultured in DMEM media supplemented with 10% heat-inactivated fetal bovine serum (FBS), high glucose (HG, 4.5 g/L) at 37° C. in a humidified atmosphere of 5% CO2.
Each sample, 2 was sent to EpigenDx, Inc. (Hopkinton, MA) for analysis of global methylation bisulfite sequencing. The same samples, 6 μg, were sent to Novogene Co., Ltd (Tianjin, China) for analysis of whole genome bisulfite sequencing (WGBS). Total RNA was isolated using the Promega SV total RNA isolation system (Madison, WI) with DNase treatment. Each sample, 2 was used for the first-strand cDNA synthesis as recommended by the manufacturer (Invitrogen, Carlsbad, CA). Real-time RT-PCR was performed using SYBR Green as the indicator on ABI 7500 Fast Real-Time PCR System (Applied Biosystems, Foster City, CA). Amplifications of β-actin or GAPDH were used as internal controls. Relative messenger RNA (mRNA) expression was quantified with the comparative cycle threshold (Ct) method using the primer set shown in Table 1.1 and was expressed as 2^−ΔΔct.
Analysis of Whole Human Genome Bisulfite Sequencing (WGBS) Each sample, 5.2 μg of genomic DNA spiked with 26 ng lambda DNA, was fragmented by sonication to 200-300 bp with Covaris S220, followed by end repair and adenylation. Cytosine-methylated barcodes were ligated to sonicated DNA per the manufacturer's instructions. These DNA fragments were treated twice with bisulfite using EZ DNA Methylation-Gold™ Kit (Zymo Research) before the resulting single-strand DNA fragments were PCR amplified using KAPA HiFi Hot Start Uracil and Ready Mix (2×). Library concentration was quantified by Qubit® 2.0 Flurometer (Life Technologies, CA, USA) and quantitative PCR, and the insert size was assayed on an Agilent Bioanalyzer 2100 system.
The library preparations were sequenced on an Illumina Hiseq 2500/4000 or Novaseq platform and 125 bp/150 bp paired-end reads were generated. Image analysis and base calling were performed with Illumina CASAVA pipeline. Trimmomatic (Trimmomatic-0.36) software was used for quality control. Bismark software (version 0.16.3; Krueger F, 2011) was used to perform alignments of bisulfite-treated reads to a reference genome (-X 700--dovetail). DSS software (23) was used to identify differentially methylated regions (DMRs). KOBAS software was used to test the statistical enrichment of DMR related genes in the Kyoto Encyclopedia of Genes and Genomes (KEGG) pathways.
Each sample (6 μg) was used for analysis of the whole genome bisulfite sequencing (WGBS).

Question: What does the source list for C[C@H](CCCC(C)(C)O)[C@H]1CC[C@H]2[C@@H]3CC=C4C[C@@H](OS(=O)(=O)O)CC[C@]4(C)[C@H]3CC[C@]12C [25HC3S, 25-hydroxycholesterol-3-sulfate]?
Answer: number of genes in Calcium pathway with 5mCpG demethylated in promoter regions (25 μM, 4 hours, of 180 total genes): 19 genes; number of genes in cAMP pathway with 5mCpG demethylated in promoter regions (25 μM, 4 hours, of 200 total genes): 28 genes; number of genes in MAPK signaling pathway with 5mCpG demethylated in promoter regions (25 μM, 4 hours, of 257 total genes): 23 genes; number of KEGG pathways the demethylated genes are involved in (high glucose model): 79 KEGG pathways; number of genes with 5mCpG converted to CpG in promoter regions (high glucose model): 1074 genes
